Laboratory results from PMC9917060.
These are yes or no findings as the source states them, for the method shown. Binding seen in cells or lysates may run through a third protein. A result given as binding can be weak or reduced; the word gives no strength. Sequences can lack the tags named with a protein.

By UniProt entry, the sequences of proteins in these tests, tags left out. Where a name states a change or a piece, a line headed by the entry shows the natural chain unless it says otherwise.
UniProt Q9VNE4: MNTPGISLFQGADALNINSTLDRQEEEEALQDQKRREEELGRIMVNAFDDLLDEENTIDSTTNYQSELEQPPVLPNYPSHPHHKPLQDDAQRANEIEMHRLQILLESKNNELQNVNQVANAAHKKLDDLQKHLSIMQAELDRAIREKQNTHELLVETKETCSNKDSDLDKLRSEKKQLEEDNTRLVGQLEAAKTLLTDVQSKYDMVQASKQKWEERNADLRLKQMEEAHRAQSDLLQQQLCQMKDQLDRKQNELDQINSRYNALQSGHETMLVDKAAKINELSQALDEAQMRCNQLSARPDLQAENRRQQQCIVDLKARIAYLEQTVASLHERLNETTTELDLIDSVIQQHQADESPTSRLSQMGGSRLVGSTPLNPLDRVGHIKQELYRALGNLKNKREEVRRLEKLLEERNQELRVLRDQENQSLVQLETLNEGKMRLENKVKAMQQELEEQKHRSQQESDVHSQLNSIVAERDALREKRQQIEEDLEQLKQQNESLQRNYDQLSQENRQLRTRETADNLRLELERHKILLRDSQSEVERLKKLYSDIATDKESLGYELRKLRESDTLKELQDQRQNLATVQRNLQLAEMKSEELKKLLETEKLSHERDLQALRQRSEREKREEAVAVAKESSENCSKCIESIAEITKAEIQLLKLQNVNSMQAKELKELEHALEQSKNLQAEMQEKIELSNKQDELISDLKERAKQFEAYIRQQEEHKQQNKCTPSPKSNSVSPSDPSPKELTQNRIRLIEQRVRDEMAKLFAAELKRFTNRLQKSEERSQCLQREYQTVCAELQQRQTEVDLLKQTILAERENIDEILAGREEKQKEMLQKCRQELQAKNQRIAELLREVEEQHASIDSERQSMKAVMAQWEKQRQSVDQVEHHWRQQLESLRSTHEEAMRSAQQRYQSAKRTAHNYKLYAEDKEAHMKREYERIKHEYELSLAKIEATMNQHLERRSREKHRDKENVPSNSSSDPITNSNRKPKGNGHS

How the values were obtained:
[1] = target: T1, NYFP-Plk4 (Drosophila melanogaster) (UniProt O97143); test: split reporter; BiFC with split YFP in D.Mel-2 cells expressing mCherry-Sas6; 0.5 mM CuSO4 for 24 h; live cell imaging
T1 sequence: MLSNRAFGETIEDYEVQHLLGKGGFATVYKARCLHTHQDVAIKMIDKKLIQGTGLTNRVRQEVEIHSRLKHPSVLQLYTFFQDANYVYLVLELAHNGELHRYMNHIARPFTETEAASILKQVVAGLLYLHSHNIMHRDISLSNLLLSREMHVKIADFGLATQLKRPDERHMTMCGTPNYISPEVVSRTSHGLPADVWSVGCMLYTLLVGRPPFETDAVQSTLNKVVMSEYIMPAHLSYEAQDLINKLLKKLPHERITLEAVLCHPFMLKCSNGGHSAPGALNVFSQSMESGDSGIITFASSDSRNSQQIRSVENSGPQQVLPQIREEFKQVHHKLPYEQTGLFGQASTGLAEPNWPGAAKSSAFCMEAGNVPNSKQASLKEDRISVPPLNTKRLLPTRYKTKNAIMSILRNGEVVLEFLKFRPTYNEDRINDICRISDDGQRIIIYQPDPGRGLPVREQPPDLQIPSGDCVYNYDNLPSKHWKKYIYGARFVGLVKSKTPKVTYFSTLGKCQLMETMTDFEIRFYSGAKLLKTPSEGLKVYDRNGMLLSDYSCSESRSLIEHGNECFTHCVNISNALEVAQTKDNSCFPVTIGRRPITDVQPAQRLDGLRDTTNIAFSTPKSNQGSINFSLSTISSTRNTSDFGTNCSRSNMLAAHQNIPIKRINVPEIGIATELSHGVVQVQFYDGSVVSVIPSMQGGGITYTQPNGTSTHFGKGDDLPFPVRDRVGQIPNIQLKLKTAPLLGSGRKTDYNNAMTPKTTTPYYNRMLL

[2] = target: T1, NYFP-Plk4 (Drosophila melanogaster); test: split reporter; BiFC with split YFP in wild type D.Mel-2 cells, fixed and stained with anti-Sas6 or anti-Asl

binding [1]: binds
binding [2]: binds
Substance: CYFP-Asl (from UniProt Q9VNE4)
